Taken from: PubChem BioAssay AID1159578 (Peter MacCallum Cancer Centre, 2015)
Shown is one part, drawn at random, of about 18,000 reagents tested. Of all reagents, about 1,030 (5.7%) are marked active. 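Inactive calls also include pools with fewer than 3300 nuclei, whose migration was not assessed.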 Raw values are not corrected between plates. The numbers tell different reagents against one gene apart. Further read-outs or replicates are left out here.

- Aim: 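Genome-wide hunt for genes controlling movement of lymphatic endothelial cells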 (primary screen)
- Cell system: human lymphatic endothelial cells
- Reagent: siRNA pool against human genes, 40 nM
- Time to read-out: 48 h after transfection
- Measurement: 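High-content imaging of dye-stained cells in a scratch assay measures filled wound area and nuclei per well; duplicate means given as ratio to mock and robust z-score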
- Reading the numbers: migration robust z-score: higher = faster migration into the scratch; nuclei per well: higher = more cells in the well
- Rule for the call: 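Pools averaging fewer than 3300 nuclei are never called; remaining pools count as changed when migration robust z lies outside -2 to 2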
- Calls: active = migration changed; inactive = no migration change, or too few cells

no.	gene knocked down	reagent	migration robust z-score	nuclei per well, duplicate mean	Call
1	NRM (nurim)	1	0.86	5956	inactive
2	TM4SF1 (transmembrane 4 L six family member 1)	1	-0.6	6322	inactive
3	SLC25A36	1	0.44	5997	inactive
4	NUDT12 (nudix hydrolase 12)	1	1.15	5120	inactive
5	NAT9 (N-acetyltransferase 9)	1	0.36	4269	inactive
6	CRYBG3 (crystallin beta-gamma domain containing 3)	1	0.32	6344	inactive
7	RAB36 (RAB36, member RAS oncogene family)	1	-2.83	4698	active
8	TMEM219 (transmembrane protein 219)	1	-1.6	6436	inactive
9	FZD4 (frizzled class receptor 4)	1	0.86	7058	inactive
10	MAGEA2 (MAGE family member A2)	1	-0.09	5059	inactive
11	SPATA31A1 (SPATA31 subfamily A member 1)	1	-0.05	5698	inactive
12	SPATA31A1 (SPATA31 subfamily A member 1)	2	2.06	6730	active
13	OR1L4 (olfactory receptor family 1 subfamily L member 4)	1	0.68	5545	inactive
14	CLDN4 (claudin 4)	1	-0.7	5631	inactive
15	MS4A6A (membrane spanning 4-domains A6A)	1	-0.64	6246	inactive
16	SRFBP1 (serum response factor binding protein 1)	1	-1.27	6274	inactive
17	H2AC15 (H2A clustered histone 15)	1	0.98	5706	inactive
18	ANKRD42 (ankyrin repeat domain 42)	1	-1.23	5128	inactive
19	CCDC7 (coiled-coil domain containing 7)	1	-1.12	5253	inactive
20	CCDC7 (coiled-coil domain containing 7)	2	-0.04	5535	inactive
21	ZNF443 (zinc finger protein 443)	1	-1.58	4913	inactive
22	VPREB1 (V-set pre-B cell surrogate light chain 1)	1	1.05	6762	inactive
23	DCLRE1C (DNA cross-link repair 1C)	1	-0.42	6277	inactive
24	SMARCC2 (SWI/SNF related BAF chromatin remodeling complex subunit C2)	1	0.39	5078	inactive
25	AP1S2 (adaptor related protein complex 1 subunit sigma 2)	1	-0.05	6010	inactive
26	QSOX2 (quiescin sulfhydryl oxidase 2)	1	-1.71	5689	inactive
27	SLC2A12	1	-0.6	5859	inactive
28	ANO4 (anoctamin 4)	1	1.01	6824	inactive
29	DOCK5 (dedicator of cytokinesis 5)	1	-0.73	5762	inactive
30	GPR18 (G protein-coupled receptor 18)	1	1.25	4406	inactive
31	ITGB2 (integrin subunit beta 2)	1	-0.78	5509	inactive
32	TCF23 (transcription factor 23)	1	-0.94	3483	inactive
33	NDUFAF3 (NADH:ubiquinone oxidoreductase complex assembly factor 3)	1	-0.01	5405	inactive
34	SULT1A4 (sulfotransferase family 1A member 4)	1	-0.34	5962	inactive
35	STAB1 (stabilin 1)	1	-0.5	6596	inactive
36	OR10J3	1	0	6008	inactive
37	VSIG1 (V-set and immunoglobulin domain containing 1)	1	1.96	5538	inactive
38	CD72 (CD72 molecule)	1	-0.44	7438	inactive
39	HHATL (hedgehog acyltransferase like)	1	-1.51	4789	inactive

4 neighbouring records already listed:
no.	gene knocked down	reagent	migration robust z-score	nuclei per well, duplicate mean	Call
9	FZD4 (frizzled class receptor 4)	1	0.86	7058	inactive
10	MAGEA2 (MAGE family member A2)	1	-0.09	5059	inactive
11	SPATA31A1 (SPATA31 subfamily A member 1)	1	-0.05	5698	inactive
12	SPATA31A1 (SPATA31 subfamily A member 1)	2	2.06	6730	active
